According to PubChem BioAssay AID901 (National Center for Advancing Translational Sciences (NCATS), 2007):
The list shows a part of the results. The main result of the screen is listed elsewhere. These columns were measured beside it and carry no call. Most of these compounds were active or inconclusive in the main read-out, so they are no random draw. Potencies come from curve fits of mixed quality, noted in brackets.

Assay: qHTS Assay for Identifying the Cell-Membrane Permeable IMPase Inhibitors
Conditions: CHO-M1 cells, IP1 accumulation, HTRF TR-FRET ratio; measured here: donor channel 620 nm AC50

Row | SMILES | AC50
1 | CCCOc1ccc(C2c3c(oc4ccc(F)cc4c3=O)C(=O)N2CCc2ccc(OC)cc2)cc1 (stereo unspecified) | 4.47 µM [rising, partial curve]
2 | Cc1[nH]c2ccccc2c1C(=O)COC(=O)C1CC(=O)N(Cc2ccccc2)C1 (stereo unspecified) | 0.126 µM [falling, full curve, poor fit]
3 | COc1ccc(OC)c(S(=O)(=O)Nc2ccccc2C(F)(F)F)c1 | 1 µM [falling, full curve, poor fit]
4 | CCOc1cc(C(=O)NC(C)CC)cc(OCC)c1OCC (stereo unspecified) | 0.02 µM [rising, full curve, poor fit]
5 | O=C(Nc1ccccc1F)c1ccc(COc2ccc(Cl)cc2Cl)o1 | 1 µM [falling, full curve]
6 | C=CCNC(=O)c1cccn1-c1ccsc1C(=O)OC | 5.01 µM [falling, partial curve, poor fit]
7 | N/C(=N\c1nc2c(c(=O)[nH]1)CCC2)Nc1cccc2ccccc12 | 0.398 µM [falling, full curve, poor fit]
8 | Cc1cc(C)cc(C(=O)NCCn2cc(SCC(=O)N3CCOCC3)c3ccccc32)c1 | 0.1 µM [falling, full curve, poor fit]
9 | COc1ccccc1N1CCN(C(=O)CSc2ccc3c(C)cc(C)nc3n2)CC1 | 0.126 µM [rising, full curve, poor fit]
10 | NC1(C(=O)O)C[C@@H](C(=O)O)[C@H](C(=O)O)C1 | 31.6 µM [falling, single point]
11 | COc1ccc(Br)cc1S(=O)(=O)N1CC(C)OC(C)C1 (stereo unspecified) | 12.6 µM [rising, partial curve]
12 | CCCCn1c(=N)n(CCOc2ccccc2OC)c2ccccc21 | 3.55 µM [rising, single point]
13 | Cc1onc(-c2ccccc2)c1C(=O)Nc1cccc(C#N)c1 | 0.891 µM [falling, full curve, poor fit]
14 | CCOC(=O)CN(C(=O)CSc1nnc(-c2ccncc2)n1CCCOC)c1ccccc1 | 12.6 µM [rising, partial curve, poor fit]
15 | CCOC(=O)c1sc(NC(=O)CN2C(=O)c3cccc4cccc(c34)C2=O)nc1C | 31.6 µM [falling, single point]
16 | CCCC(C)C(=O)Nc1nc(C)c(-c2csc(Nc3cc(OC)ccc3OC)n2)s1 (stereo unspecified) | 25.1 µM [falling, single point]
17 | COc1cc(-c2nc(N)n[nH]2)cc(OC)c1OC | 31.6 µM [falling, single point]
18 | CC(C)(C)n1nnnc1C(c1ccc(C#N)cc1)N1CCCC2(CCCCC2)C1 (stereo unspecified) | 31.6 µM [falling, single point]
19 | Cc1ccc(NC(=O)c2noc3c2CC(C(C)(C)C)CC3)cc1 (stereo unspecified) | 0.0398 µM [falling, full curve, poor fit]
20 | O=C(COc1ncnc2ccccc12)NCCC1=CCCCC1 | 3.98 µM [falling, partial curve]
21 | CCOC(=O)N1CCC(NC(=O)CNS(=O)(=O)c2ccc(Br)s2)CC1 | 0.1 µM [falling, full curve]
22 | CCN(CC)C(=O)CSc1nc2ccc(NC(=O)CSc3nccn3C)cc2s1 | 25.1 µM [falling, single point]
23 | COc1ccc(NC(=S)N2CCN(C(c3ccccc3)c3ccccc3)CC2)cc1OC | 0.01 µM [rising, full curve, poor fit]

Row | SMILES | AC50
24 | N#Cc1c(C(F)(F)F)cc(-c2ccc(F)cc2)nc1SCC(=O)Nc1ccccc1 | 22.4 µM [rising, partial curve]
25 | CC1CN(S(=O)(=O)c2cccc3nsnc23)CC(C)O1 (stereo unspecified) | 0.00251 µM [rising, full curve, poor fit]
26 | CCc1cc(=O)oc2cc(C)cc(O)c12 | 10 µM [rising, partial curve]
27 | O=C(Nc1nn(Cc2ccc(Cl)cc2)cc1Br)c1ccc(COc2ccccc2Cl)o1 | 0.0794 µM [falling, full curve, poor fit]
28 | CC(=O)Nc1ccc(OCC(O)CNC2CCCC2)cc1 (stereo unspecified) | 0.501 µM [falling, single point]
29 | Cc1ccc(-n2c(C)nnc2SCC(=O)Nc2ccccc2)cc1 | 0.316 µM [falling, partial curve, poor fit]
30 | O=c1c(-c2ccnn2-c2ccc(F)cc2)cnc2n1CCS2 | 20 µM [falling, single point]
31 | COc1ccc(CN(C(=S)Nc2ccccc2)C2CC(=O)N(c3ccc(Cl)cc3)C2=O)cc1 (stereo unspecified) | 0.00501 µM [rising, full curve, poor fit]
32 | O=C(O)c1cc(NCc2c(F)cccc2Cl)ccc1N1CCOCC1 | 31.6 µM [falling, single point]
33 | CC1(C)CC(=O)c2c(-c3cccnc3)n[nH]c2C1 | 35.5 µM [falling, single point]
34 | COc1cc(/C=C(/C#N)c2nc(-c3cc4ccccc4oc3=O)cs2)ccc1O | 35.5 µM [falling, single point]
35 | O=C(NCCc1ccc(F)cc1)c1cccs1 | 0.251 µM [rising, single point]
36 | CCN(CCO)c1ncnc2c1sc1nc(C(C)C)c3c(c12)CC(C)(C)OC3 | 12.6 µM [rising, single point]
37 | CCCCOc1ccc(CNC(=O)NS(=O)(=O)c2ccc(OCC)cc2)cc1 | 2.51 µM [falling, partial curve, poor fit]
38 | C=CCSc1nnc(-c2cccnc2)o1 | 0.0708 µM [falling, full curve]
39 | N#Cc1cc2nc(O)c(O)nc2cc1[N+](=O)[O-] | 0.002 µM [falling, full curve, poor fit]
40 | CC(CCc1ccccc1)NC(=O)C(Cc1ccccc1)NS(=O)(=O)c1cccs1 (stereo unspecified) | 0.0501 µM [falling, full curve, poor fit]
41 | Cc1oc(CC(C)C)c(CN2CCCC2)c1C(=O)O | 10 µM [falling, partial curve]
42 | Cc1nnc(N2C(=O)c3oc4ccccc4c(=O)c3C2c2cccc(OCCC(C)C)c2)s1 (stereo unspecified) | 25.1 µM [rising, single point]
43 | O=C(CNc1ccccc1)N/N=C/c1c[nH]c2ccccc12 | 22.4 µM [falling, single point]
44 | N[C@@H](C(=O)O)c1ccc(C(=O)O)cc1 | 15.8 µM [falling, partial curve, poor fit]
45 | Cn1c(=O)n(C)c2cc([N+](=O)[O-])c(N3CCN(C(=O)c4ccccc4)CC3)cc21 | 0.631 µM [falling, full curve, poor fit]
46 | COc1ccc(-c2nc(N3CCC(C)CC3)[nH]c(=O)c2C#N)cc1 | 31.6 µM [rising, single point]

Fetched by compound from the list above, 2 records:
Row | SMILES | AC50
46 | COc1ccc(-c2nc(N3CCC(C)CC3)[nH]c(=O)c2C#N)cc1 | 31.6 µM [rising, single point]
40 | CC(CCc1ccccc1)NC(=O)C(Cc1ccccc1)NS(=O)(=O)c1cccs1 (stereo unspecified) | 0.0501 µM [falling, full curve, poor fit]
